Assay results: patent publication US20180251563A1
Results are given in words; binding and its absence hold for the method and conditions named. Some entries that bind do so weakly or less than the wild type.

Amino acid sequences for entries named in this document (tags omitted). Residues count along the entry.
UniProt O14763, residues 56-182: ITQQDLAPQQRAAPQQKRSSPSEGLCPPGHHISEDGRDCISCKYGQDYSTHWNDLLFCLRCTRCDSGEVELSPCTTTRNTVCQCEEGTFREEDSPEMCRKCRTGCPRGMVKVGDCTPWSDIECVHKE
UniProt P20273, residues 20-687: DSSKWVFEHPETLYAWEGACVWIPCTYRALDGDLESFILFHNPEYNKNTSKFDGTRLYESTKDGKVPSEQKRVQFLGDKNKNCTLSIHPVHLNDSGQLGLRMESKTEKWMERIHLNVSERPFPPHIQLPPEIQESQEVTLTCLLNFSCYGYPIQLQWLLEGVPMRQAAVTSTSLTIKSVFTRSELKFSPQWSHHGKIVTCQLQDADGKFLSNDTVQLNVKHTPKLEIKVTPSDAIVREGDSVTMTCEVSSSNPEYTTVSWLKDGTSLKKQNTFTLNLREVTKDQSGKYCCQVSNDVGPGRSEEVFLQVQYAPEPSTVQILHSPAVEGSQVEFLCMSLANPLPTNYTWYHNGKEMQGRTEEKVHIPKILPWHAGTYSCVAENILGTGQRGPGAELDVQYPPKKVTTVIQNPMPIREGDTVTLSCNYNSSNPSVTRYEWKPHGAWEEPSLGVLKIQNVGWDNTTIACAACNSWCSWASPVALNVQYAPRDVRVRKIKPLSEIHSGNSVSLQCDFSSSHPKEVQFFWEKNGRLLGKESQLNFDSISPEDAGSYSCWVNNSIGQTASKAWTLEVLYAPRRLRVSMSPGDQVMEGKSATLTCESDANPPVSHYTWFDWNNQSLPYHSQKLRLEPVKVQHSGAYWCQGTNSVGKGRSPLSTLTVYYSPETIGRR
UniProt P15391, residues 20-291: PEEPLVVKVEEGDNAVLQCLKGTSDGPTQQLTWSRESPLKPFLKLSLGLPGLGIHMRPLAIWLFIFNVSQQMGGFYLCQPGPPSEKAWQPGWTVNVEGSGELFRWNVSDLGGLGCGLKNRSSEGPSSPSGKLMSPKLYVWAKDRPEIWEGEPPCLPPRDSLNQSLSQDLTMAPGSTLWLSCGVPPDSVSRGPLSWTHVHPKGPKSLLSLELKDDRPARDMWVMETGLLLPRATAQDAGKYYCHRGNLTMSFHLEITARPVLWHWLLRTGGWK

B1: SEQ ID NO 177 (designed binder)
chain: MGSWQEFTTRLEAIYHRLRALGGSEAELANFEGFIAEFEGNLQMYKGKGNPEVEALVHEAYAIMEELHAYRHN
B2: SEQ ID NO 178 (designed binder)
chain: MGSWVEFFDRLKAIHDRLEALGGSEAELAHFEKLIAHFEHRLQNYKGKGNPEVEALEKEADAILYELAAYRHN
B3: SEQ ID NO 179 (designed binder)
chain: MGSWYYFKHHLAWIKMELEALGGSEAELAHFESSIASFERDLQQYKGKGNPEVEALRKEAAAIRDELQAYRHN
B4: SEQ ID NO 180 (designed binder)
chain: MGSWVEFHIRLHAIQYRLYALGGSEAELAAFEKEIAAFESELQAYKGKGNPEVEELRHWAAFIRLQLQAYRHN
B5: SEQ ID NO 167 (designed binder)
chain: MGSWVVFKQRLAYIKDLLEALGGSEAELAYFEMSIAFFEEDLQVYKGKGNPEVEALRKEAAAIRDELQAYRHN
B6: SEQ ID NO 168 (designed binder)
chain: MGSWYEFKNDLAWIKVHLEALGGSEAELAYFEFRIAHFENALQYYKGKGNPEVEALRKEAAAIRDELQAYRHN
B7: SEQ ID NO 169 (designed binder)
chain: MGSWVEFYNRLWAIDHRLHALGGSEAELAAFEKEIAAFESELQAYKGKGNPEVEVLRYHAASIRVTLQAYRHN
B8: SEQ ID NO 170 (designed binder)
chain: MGSWSEFYDRLHAIHHRLYALGGSEAELAAFEKEIAAFESELQAYKGKGNPEVEALRDTAAFIRTRLQAYRHN
B9: SEQ ID NO 171 (designed binder)
chain: MGSWKEFHFRLHAIEHRLIALGGSEAELAAFEKEIAAFESELQAYKGKGNPEVEFLRAKAANIRTHLQAYRHN
B10: SEQ ID NO 172 (designed binder)
chain: MGSWFEFHGRLHAIYGRLSALGGSEAELAAFEKEIAAFESELQAYKGKGNPEVEHLRAHAAHIRDHLQAYRHN
B11: SEQ ID NO 173 (designed binder)
chain: MGSWYEFADRLHAIHQRLYALGGSEAELAAFEKEIAAFESELQAYKGKGNPEVEALRMTAAFIRSRLQAYRHN
B12: SEQ ID NO 174 (designed binder)
chain: MGSWNEFYNRLHAIHQRLYALGGSEAELAAFEKEIAAFESELQAYKGKGNPEVESLRQTAAYIRDRLQAYRHN
B13: SEQ ID NO 175 (designed binder)
chain: MGSWNEFADRLHAIHQRLYALGGSEAELAAFEKEIAAFESELQAYKGKGNPEVESLRMTAAFIRSRLQAYRHN
B14: SEQ ID NO 176 (designed binder)
chain: MGSWTEFSYRLGAIQSRLHALGGSEAELAAFEKEIAAFESELQAYKGKGNPEVEHLRYNAAKIRHFLQAYRHN
B15: SEQ ID NO 137 (designed binder)
chain: MGSWEEFELRLNAIEERLYALGGSEAELAYFEYVIADFEGNLQRYKGKGNPEVEALYFEADAIFEELVAYRHN
B16: SEQ ID NO 138 (designed binder)
chain: MGSWFEFNHRLWAIFERLMALGGSEAELAAFEKEIAAFESELQAYKGKGNPEVEYLRAMAAVIRYHLQAYRHN
B17: SEQ ID NO 139 (designed binder)
chain: MGSWEEFDGRLFAIEQRLQALGGSEAELAAFEKEIAAFESELQAYKGKGNPEVEVLRWFAAGIRDFLQAYRHN
B18: SEQ ID NO 140 (designed binder)
chain: MGSWAEFYHRLYAIETRLSALGGSEAELAAFEKEIAAFESELQAYKGKGNPEVEYLRHWAAWIRTYLQAYRHN
B19: SEQ ID NO 141 (designed binder)
chain: MGSWVEFSDRLYAIEERLWALGGSEAELAAFEKEIAAFESELQAYKGKGNPEVEELRELAAIIRHSLQAYRHN
B20: SEQ ID NO 142 (designed binder)
chain: MGSWWEFEGRLYAIEERLTALGGSEAELAAFEKEIAAFESELQAYKGKGNPEVEYLREWAAWIRQMLQAYRHN
B21: SEQ ID NO 143 (designed binder)
chain: MGSWWEFEHRLYAIEERLVALGGSEAELAAFEKEIAAFESELQAYKGKGNPEVEYLRNWAAYIRMALQAYRHN
B22: SEQ ID NO 144 (designed binder)
chain: MGSWWEFEARLYAIEFRLSALGGSEAELAAFEKEIAAFESELQAYKGKGNPEVEYLRSWAAYIRTSLQAYRHN
B23: SEQ ID NO 145 (designed binder)
chain: MGSWWEFEARLWAIESRLKALGGSEAELAAFEKEIAAFESELQAYKGKGNPEVEYLRHWAAYIRVILQAYRHN
B24: SEQ ID NO 146 (designed binder)
chain: MGSWWEFEARLYAIEFRLSALGGSEAELAAFEKEIAAFESELQAYKGKGNPEVEYLRSWAAYIRTSLQAYRHN
B25: SEQ ID NO 147 (designed binder)
chain: MGSWEEFYHRLDAIELRLYALGGSEAELAAFEKEIAAFESELQAYKGKGNPEVEYLRWYAAEIREILQAYRHN
B26: SEQ ID NO 148 (designed binder)
chain: MGSWYEFYERLDAIDTRLWALGGSEAELAAFEKEIAAFESELQAYKGKGNPEVEFLREYAAEIRHFLQAYRHN
B27: SEQ ID NO 149 (designed binder)
chain: MGSWNEFFDRLDAILYRLDALGGSEAELAAFEKEIAAFESELQAYKGKGNPEVEYLRFVAADIRSWLQAYRHN
B28: SEQ ID NO 150 (designed binder)
chain: MGSWIEFDDRLLAIMDRLWALGGSEAELAAFEKEIAAFESELQAYKGKGNPEVEDLRDVAADIRHYLQAYRHN
B29: SEQ ID NO 151 (designed binder)
chain: MGSWYEFWERLDAITFRLYALGGSEAELAAFEKEIAAFESELQAYKGKGNPEVEDLRTWAADIRAILQAYRHN
B30: SEQ ID NO 152 (designed binder)
chain: MGSWEEFYIRLDAIMERLWALGGSEAELAAFEKEIAAFESELQAYKGKGNPEVEDLRYAAADIRHFLQAYRHN
B31: SEQ ID NO 153 (designed binder)
chain: MGSWIEFEERLYAIETRLLALGGSEAELAAFEKEIAAFESELQAYKGKGNPEVEFLRVVAADIREWLQAYRHN
B32: SEQ ID NO 154 (designed binder)
chain: MGSWIEFEHRLSAINDRLYALGGSEAELAAFEKEIAAFESELQAYKGKGNPEVEDLREWAADIRSLLQAYRHN
B33: SEQ ID NO 155 (designed binder)
chain: MGSWFEFEMRLDAIMARLWALGGSEAELAAFEKEIAAFESELQAYKGKGNPEVEDLRYAAADIRDYLQAYRHN
B34: SEQ ID NO 156 (designed binder)
chain: MGSWYEFVYRLDAIYDRLWALGGSEAELAAFEKEIAAFESELQAYKGKGNPEVEDLRYAAADIRDFLQAYRHN
B35: SEQ ID NO 157 (designed binder)
chain: MGSWVEFEDRLDAILERLWALGGSEAELAAFEKEIAAFESELQAYKGKGNPEVEDLRELAADIRDFLQAYRHN
B36: SEQ ID NO 158 (designed binder)
chain: MGSWFEFEERLIAIEERLFALGGSEAELAAFEKEIAAFESELQAYKGKGNPEVEYLRWIAADIRDVLQAYRHN
B37: SEQ ID NO 159 (designed binder)
chain: MGSWIEFADRLDAILDRLDALGGSEAELAAFEKEIAAFESELQAYKGKGNPEVEWLREIAADIRAYLQAYRHN
B38: SEQ ID NO 160 (designed binder)
chain: MGSWLEFEYRLDAILDRLFALGGSEAELAAFEKEIAAFESELQAYKGKGNPEVEDLREVAADIRMLLQAYRHN
B39: SEQ ID NO 161 (designed binder)
chain: MGSWYEFHDRLDAITNRLYALGGSEAELAAFEKEIAAFESELQAYKGKGNPEVEDLRDWAADIRVWLQAYRHN
B40: SEQ ID NO 162 (designed binder)
chain: MGSWQEFEQRLDAINWRLWALGGSEAELAAFEKEIAAFESELQAYKGKGNPEVEELREWAADIRIFLQAYRHN
B41: SEQ ID NO 163 (designed binder)
chain: MGSWYEFYSRLDAIDSRLYALGGSEAELAAFEKEIAAFESELQAYKGKGNPEVEFLRDYAAEIRRYLQAYRHN
B42: SEQ ID NO 164 (designed binder)
chain: MGSWEEFHDRLEAISDRLWALGGSEAELAAFEKEIAAFESELQAYKGKGNPEVEDLRDWAADIRFYLQAYRHN
B43: SEQ ID NO 165 (designed binder)
chain: MGSWWEFDERLYAIEDRLFALGGSEAELAAFEKEIAAFESELQAYKGKGNPEVEWLRIVAADIREILQAYRHN
B44: SEQ ID NO 166 (designed binder)
chain: MGSWEEFEYRLMAIEVRLWALGGSEAELAAFEKEIAAFESELQAYKGKGNPEVEVLREIAADIRQILQAYRHN

target: DR5 (target of Example 24) (UniProt O14763); assay: library selection; assay not described

binding, binds:
B1
B2
B3
B4

target: CD22 (UniProt P20273); assay: library selection; assay not described

binding, binds:
B5
B6
B7
B8
B9
B10
B11
B12
B13
B14

target: CD19 (UniProt P15391); assay: library selection; assay not described

binding, binds:
B15
B16
B17
B18
B19
B20
B21
B22
B23
B24
B25
B26
B27
B28
B29
B30
B31
B32
B33
B34
B35
B36
B37
B38
B39
B40
B41
B42
B43
B44
